Experimental data taken from PubChem BioAssay AID595 (National Center for Advancing Translational Sciences (NCATS), 2007).
Several values for one entry are separate records, joined by “and”; a condition that tells them apart may be missing. Equal values may be shown once. The whole screen tested about 71,000 compounds, of which about 310 (0.44%) were called active. Inconclusive means that the source gave no clear call. Such entries were picked first, then a sample of the others. Calls come from the whole dose curve; as a rule, active = well fitted curve in either direction with a large enough effect; inconclusive = small, poorly fitted or top-dose-only effect, or another doubt; inactive = flat fitted curve, though single readings scatter. Potencies beside an inconclusive call are fits to weak or partial responses and may not hold up.

Test system: Hsp90 C-terminal peptide / TPR2A (Hop) interaction, human
Assay: qHTS Assay for Disrupters of an Hsp90 Co-Chaperone Interaction
Conditions: AlphaScreen TPR2A-His6 binding biotin-Hsp90 C-terminal peptide
Source text: NIH Chemical Genomics Center [NCGC]
NIH Molecular Libraries Screening Centers Network [MLSCN]
Hsp90 (heat shock protein 90) is the essential molecular chaperone and it accounts for 1-2% of all cytosolic proteins and is critical for the activity of diverse cellular proteins that are involved in a variety of cellular processes, including development, cell cycle, and steroid hormone signaling. Its client proteins include signaling kinases such as IGF1R, Akt, v-Src, Raf-1; regulators of cell survival such as Bcr-Abl; and transcription factors such as mutated p53, estrogen and progesterone receptors. Hsp90 has emerged as an important target for cancer treatment due to its essential role in maintaining transformation and regulating the function of oncogenic signaling proteins.
The in vivo function of Hsp90 is regulated by the binding and hydrolysis of ATP at its N-terminal. Geldanamycin binds to ATP site and inhibit Hsp90 function. Geldanamycin and its analogues are under clinical trials in cancer patients.
This domain contains the binding site for tetratricopeptide repeat (TPR) domains on HOP (Hsp Organizing Protein). TPR is a structural motif used by a significant number of cochaperones by which the in vivo function of Hsp90 is regulated. TPR2A on HOP binds specifically to MEEVD motif of the C-terminal of Hsp90.
A homogeneous AlphaScreen is developed to assess the interaction between TPR2A and MEEVD motif of the C-terminal of Hsp90 by using the isolated TPR2A domain and a synthesized 20mer Hsp90 C terminal peptide. AlphaScreen is two bead-based proximity-dependent chemical energy transfer luminescent assay platform. TPR2A-His-6 and biotinylated Hsp90 C terminal peptide will bring streptavidin donor beads and nickel chelate acceptor beads to a proximity range (less than 200 nm), and subsequently lead a chemical luminescent reaction upon exciting donor beads with 680 nm laser. Inhibition of TPR2A and MEEVD motif interaction by small molecules could attenuate or abolish this chemical luminescent reaction.
Counter screening: Biotinylated-His-6 (PerkinElmer) can be utilized as a counter screen, as it serves as a linker to bring streptavidin beads and nickel chelate beads together. The counter screen can exclude alpha screen platform false positives due to small molecules being metal chelators, biotin analogues and imidazole analogues, or due to interfering with oxygen release from donor beads. Such an assay should be utilized to qualify any activity observed in this screen.
NCGC Assay Protocol Summary:
The assay was performed on 1536-well white plate (untreated solid bottom). Liquids were dispensed by 1536-well plate washer (Kalypsys, San Diego, CA). Plates were read on EnVision (PerkinElmer, Boston, MA).TPR2A-His6 was produced using a bacteria expression system and purified using a well developed method (Ghosh et al., 2000). Hsp90 C terminal 20-mer peptide with or without an N-terminal biotin group are synthesized using automated solid phase synthesis by the Yale Keck facility. The composition of assay buffer was (in mM) 25 HEPES, 100 KCl, 2 MgCl2 and 2 DTT; 0.1% BSA and 0.01% Tween-20. TPR2A-His6 binding to biotin-Hsp90 will bring streptavidin donor beads and nickel chelate acceptor beads (PerkinElmer) together and can be measured by Alpha reading by EnVision (PerkinElmer). Free Hsp90 blocks biotin-Hsp90 binding to TPR2 and serves as a positive control in the current asssay.
The assay was performed at room temperature. All compounds were screened as titrations from […] to 46 uM final concentration. The assay was performed in 1536-well format plates (untreated white solid bottom, Corning Inc.) as follows:
Sequence,Parameter,Value,Description
1,Reagent,3 uL TPR2A-His6,Final concentration was 5nM
2,Compound,23 nL,Final titration was from 0.7 nM to 46 uM
3,Time,15 minutes,Room temperature
4,Reagent,1 uL biotin-Hsp90,With and without free Hsp90. Final concentration was 10 nM for biotin-Hsp90 and 10uM for free Hsp90.
5,Time,1 hour,Room temperature
[…]

[1] = activity change, negative = inhibition: at 57 µM (top of the series) unless noted
% is set by controls: 0 for no effect and ±100 for the full control effect; potency is the fitted concentration of half-maximal effect.

Question: With `CSCCC(C(=O)O)N1C(=O)c2ccc(C(=O)O)cc2C1=O` (centres undefined) as the compound, how does the activity change, negative = inhibition [1] read?
Answer: inconclusive: 53.2%

Question: Which Potency [1] does the source give for `CCOc1ccc(C2C(C#N)=C(N)N3C(=C2C#N)Sc2ccccc23)cc1` (centres undefined) here?
Answer: inconclusive: 10 µM [activator, partial curve]

Question: Which Potency [1] does the source give for `NNc1nncc2ccccc12` here?
Answer: inconclusive: 31.6 µM [inhibitor, single point] and active: 12.6 µM

Question: With `Cc1cc(Nc2nc3c(c(=O)n(C)c(=O)n3C)n2C)n(-c2ccccc2)n1` as the compound, how does the activity change, negative = inhibition [1] read?
Answer: inconclusive: 48.8%

Question: Which results are given for `COc1ccc([C@H]2Sc3ccccc3N(CCN(C)C)C(=O)[C@H]2OC(C)=O)cc1`?
Answer: activity change, negative = inhibition [1]: inconclusive: 62.8%; activity change, negative = inhibition (at 26 µM (top of the series)): inactive: 0.465%

Question: Which Potency [1] does the source give for `COc1ccc(-c2cc(C(F)(F)F)nc(N3CCCCCC3)n2)cc1` here?
Answer: active: 25.1 µM [activator]

Question: For `COc1ccc(-c2nnc(CSc3nc4ccccc4c(=O)n3CC(C)C)o2)cc1OC`, which activity change, negative = inhibition [1] is on record?
Answer: inactive

Question: How did the activity change, negative = inhibition [1] turn out when `COc1ccc2nc(Nc3ccc4c(c3)OCO4)sc2c1` was run?
Answer: inconclusive: 29.9%

Question: `Cc1ccc(-n2c(SCC(=O)OC(C)C)nnc2-c2ccccn2)cc1` was tested. Which Potency [1] did it give?
Answer: inconclusive: 31.6 µM [inhibitor, single point]

Question: With `CC1CCCC(C)N1C(=O)COc1ccc(-c2nnco2)cc1` (centres undefined) as the compound, how does the activity change, negative = inhibition [1] read?
Answer: inconclusive: 46.8%

Question: How did the activity change, negative = inhibition [1] turn out when `COc1cccc(Cn2c(=O)cnc3cnc(OCc4ccccc4)nc32)c1` was run?
Answer: inactive

Question: How did the activity change, negative = inhibition [1] turn out when `COC(=O)Cc1ccc(NC(=O)c2cccs2)cc1` was run?
Answer: inactive

Question: `COc1ccc2[nH]cc(CCNc3ccnc(-c4ccoc4)n3)c2c1` was tested. Which Potency [1] did it give?
Answer: inconclusive: 20 µM [inhibitor, partial curve]

Question: How did the activity change, negative = inhibition [1] turn out when `CNc1ncnc2ccc(-c3ccccc3OC)cc12` was run?
Answer: inactive

Question: `CC12CS(=O)(=O)CC1SC(=S)N2c1ccccn1` (centres undefined) was tested. Which activity change, negative = inhibition [1] did it give?
Answer: inconclusive: 43%

Question: How did the activity change, negative = inhibition [1] turn out when `COc1ccccc1-c1cn(S(=O)(=O)c2ccc(F)cc2)nc1N` was run?
Answer: inconclusive: 45.8%

Question: Which Potency [1] does the source give for `CC(=O)N1CN(Cc2ccccn2)Cc2c1sc1c2CCCC1` here?
Answer: inconclusive: 25.1 µM [inhibitor, single point]

Question: With `CCOc1ccc(-n2cc(C(=O)N3CCC(C)CC3)c3cc(OC)c(OC)cc3c2=O)cc1` as the compound, how does the activity change, negative = inhibition [1] read?
Answer: inconclusive: 38.9%

Question: Which activity change, negative = inhibition [1] does the source give for `Nc1ccc(N2CCCCCC2)cc1` here?
Answer: inconclusive: -31.5%

Question: Which activity change, negative = inhibition [1] does the source give for `O=C(COc1ccccc1)Nc1ccccc1N1CCCCC1` here?
Answer: inconclusive: 187%

Question: For `Nc1c(C(=O)c2ccccc2)oc2ccc(Br)cc12`, which activity change, negative = inhibition [1] is on record?
Answer: inactive

Question: For `Nn1c(SCC(=O)NC(=O)NC2CCCC2)nnc1-c1ccccc1F`, which activity change, negative = inhibition [1] is on record?
Answer: inconclusive: 42.2%

Question: Which Potency [1] does the source give for `CC#C[C@]1(O)CC[C@H]2[C@@H]3CCC4=CC(=O)CCC4=C3[C@H](c3ccc(N(C)C)cc3)C[C@@]21C` here?
Answer: inconclusive: 39.8 µM [inhibitor, partial curve]
